These are yes or no findings as the source states them, for the method shown. In cells and extracts the contact can be indirect. A yes stands for co-enrichment or nearness to the bait. Other partners may have been found.
Assays:
[1] = biological target: BirAG-OsFD2 (rice) (UniProt B7FA17); experiment: proximity labelling; BioID in rice protoplasts transfected with pUbi::BirAG fusions; 24 h in WI with 50 uM biotin; biotinylated proteins captured on streptavidin Dynabeads, on-bead trypsin, nano LC-MS/MS; controls pUbi::WTBirA, pUbi::BirAG and pUbi::BirAG-FD1
[2] = biological target: BirAG-OsFD1 (rice); experiment: as above

Sequences of proteins named here, by UniProt entry; tags and fusion partners are left off. A change or cut given only in a name is not applied to a line headed by its entry.
UniProt B7FA17: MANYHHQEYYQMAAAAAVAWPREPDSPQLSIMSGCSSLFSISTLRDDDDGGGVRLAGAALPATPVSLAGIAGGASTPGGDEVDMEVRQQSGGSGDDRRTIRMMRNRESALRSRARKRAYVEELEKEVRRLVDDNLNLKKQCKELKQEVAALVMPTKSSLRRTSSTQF
UniProt P40392: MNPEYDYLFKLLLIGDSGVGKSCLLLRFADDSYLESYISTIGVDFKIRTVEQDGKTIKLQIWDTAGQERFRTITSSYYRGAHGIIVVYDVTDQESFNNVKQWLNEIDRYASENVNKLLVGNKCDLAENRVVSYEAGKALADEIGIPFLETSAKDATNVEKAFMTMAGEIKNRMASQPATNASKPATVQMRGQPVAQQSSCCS
UniProt Q06967: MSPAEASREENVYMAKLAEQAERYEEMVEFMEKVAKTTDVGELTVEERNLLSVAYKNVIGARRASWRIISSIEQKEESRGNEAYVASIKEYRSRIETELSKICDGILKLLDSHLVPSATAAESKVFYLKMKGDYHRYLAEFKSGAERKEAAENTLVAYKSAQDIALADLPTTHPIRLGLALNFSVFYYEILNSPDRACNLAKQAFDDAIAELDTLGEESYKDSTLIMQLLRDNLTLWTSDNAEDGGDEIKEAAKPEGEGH
UniProt Q2R2W2: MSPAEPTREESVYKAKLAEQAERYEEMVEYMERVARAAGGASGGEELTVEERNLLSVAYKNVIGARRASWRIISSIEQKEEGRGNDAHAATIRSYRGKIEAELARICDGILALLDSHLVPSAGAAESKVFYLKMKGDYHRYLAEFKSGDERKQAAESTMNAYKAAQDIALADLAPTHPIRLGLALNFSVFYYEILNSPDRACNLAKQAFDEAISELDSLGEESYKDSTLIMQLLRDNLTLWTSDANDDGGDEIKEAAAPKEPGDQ

| Molecule | binding [1] | binding [2] |
| --- | --- | --- |
| Q0JLX8 (Os01g0558600), Ras-related RIC1 (from UniProt P40392 1-202) | binds |  |
| 14-3-3 like protein Q10E23 (from UniProt Q06967) |  | binds |

The remaining lines, values ahead:

| binding [1] | binding [2] | Molecule |
| --- | --- | --- |
|  | binds | 14-3-3 like protein Q2R2W2 (from UniProt Q2R2W2) |
| binds | binds | Q5VMJ3 (Os06g0152100), actin monomer binding protein (protein, UniProt Q5VMJ3 1-131) MSWQAYVDDHLMCEIDGNHLTAAAIVGHDGSVWAQSPNFPQYKPEEITGIMKDFDEPGSLAPTGLFLGGTKYMVIQGEPGVVIRGKKGTGGICVKKTGLSLILGIYDEPMTPGQCNMIVERLGDYLIEQGC |

Source: publication PMC5427108
